Source: US20150368343A1
No constants are given. Whether binding was seen depends on the method and setting. A result given as binding can be weak or reduced; the word gives no strength.

Legend:
Test in all cases: flow cytometry, 293T transfectants, 2 mM CaCl2
[1] = target: rhCDH19(1-43)::FLAG::rhCDH19(44-141)::caCDH19(141-770) (rhesus macaque/dog chimera)
[2] = target: huCDH19(1-43)::FLAG::huCDH19(44-141)::ckCDH19(142-776) (human/chicken chimera)
[3] = target: rhCDH19(1-43)::FLAG::rhCDH19(44-772) (rhesus macaque)
[4] = target: muCDH19(44-323)::raCDH19(324-327)::muCDH19(328-770), FLAG-tagged (rat/mouse chimera)
[5] = target: raCDH19(1-43)::FLAG::raCDH19(44-770) (rat)
[6] = target: muCDH19(44-770)::huCDH19(271), FLAG-tagged (human/mouse chimera)
[7] = target: ckCDH19(1-43)::FLAG::ckCDH19(44-249)::huCDH19(250-364)::ckCDH19(365-776) (human/chicken chimera)

Measured: binding

B1: hu anti-<huCDH19> 4A9, huIgG1z / huLLC-C1 (Ab ID 13589) (antibody, V domains shown)
VH: QVQLQESGPGLVKPSETLSLTCTVSGGSISGYYWSWIRQPPGKGLEWFAYFSYSGSTNYNPSLKSRVTLSVDTSKNQFSLKLSSVTAADTAVYYCARNWAFHFDFWGQGTLVTVSS
VL: QSVLTQPPSVSGAPGQRVTISCTGSSSNIGTGYAVHWYQQFPGTAPKLLIYGNNNRPSGVPDRFSGSKSGTSASLAITGLQAEDEADYYCQSYDSRLSGWVFGGGTKLTVLG
binds: [1] | [2] | [3]

B2: anti-CDH19 antibody 2G6 (Ab ID 13588) (antibody, human IgG1, lambda, V domains shown)
VH: QVQLVESGGGVVQPGRSLRLSCAASGFTFSSYGMHWVRQAPGKGLEWVAFIWYDGSNKYYADSVKDRFTISRDNSKNTLYLQMKSLRAEDTAVYYCARRAGIIGTIGYYYGMDVWGQGTTVTVSS
VL: SYELTQPPSVSVSPGQTASITCSGDRLGEKYTCWYQQRPGQSPLLVIYQDTKRPSGIPERFSGSNSGNTATLTISGTQAMDEADYYCQAWDSSTVVFGGGTKLTVLG
binds: [4] | [5] | [6] | [7] | [3]

B3: anti-CDH19 antibody 4A2 (Ab ID 13592) (antibody, human IgG1, kappa, V domains shown)
VH: QVQLQESGPGLVKPSQTLSLTCTVSGGSISSSGYYWSWIRQHPGKGLEWIGYIYYTGSAYYNPSLKSRVTISVDTSKNQFSLKLSSVTAADTAVYYCARDGSSGWYFQYWGQGTLVTVSS
VL: EIVLTQSPGTLSLSPGERATLSCRASRNISSSYLAWYQQKPGQAPRLLIYGPSSRATGIPDRFSGSGSGTDFTLTISRLEPEDFTVYYCQQYGSSFTFGPGTKVDIKR
binds: [3]
